From paper doi:10.1101/2021.05.31.446389
No constants are given. Whether binding was seen depends on the method and setting. In cells and extracts the contact can be indirect. Binding calls can cover weak binding; strength is not graded here.

Target: GST-tagged 14-3-3
Assay: pull-down

B1: cellular USP8 (enzyme, UniProt P40818 1-1118)
chain: MPAVASVPKELYLSSSLKDLNKKTEVKPEKISTKSYVHSALKIFKTAEECRLDRDEERAYVLYMKYVTVYNLIKKRPDFKQQQDYFHSILGPGNIKKAVEEAERLSESLKLRYEEAEVRKKLEEKDRQEEAQRLQQKRQETGREDGGTLAKGSLENVLDSKDKTQKSNGEKNEKCETKEKGAITAKELYTMMTDKNISLIIMDARRMQDYQDSCILHSLSVPEEAISPGVTASWIEAHLPDDSKDTWKKRGNVEYVVLLDWFSSAKDLQIGTTLRSLKDALFKWESKTVLRNEPLVLEGGYENWLLCYPQYTTNAKVTPPPRRQNEEVSISLDFTYPSLEESIPSKPAAQTPPASIEVDENIELISGQNERMGPLNISTPVEPVAASKSDVSPIIQPVPSIKNVPQIDRTKKPAVKLPEEHRIKSESTNHEQQSPQSGKVIPDRSTKPVVFSPTLMLTDEEKARIHAETALLMEKNKQEKELRERQQEEQKEKLRKEEQEQKAKKKQEAEENEITEKQQKAKEEMEKKESEQAKKEDKETSAKRGKEITGVKRQSKSEHETSDAKKSVEDRGKRCPTPEIQKKSTGDVPHTSVTGDSGSGKPFKIKGQPESGILRTGTFREDTDDTERNKAQREPLTRARSEEMGRIVPGLPSGWAKFLDPITGTFRYYHSPTNTVHMYPPEMAPSSAPPSTPPTHKAKPQIPAERDREPSKLKRSYSSPDITQAIQEEEKRKPTVTPTVNRENKPTCYPKAEISRLSASQIRNLNPVFGGSGPALTGLRNLGNTCYMNSILQCLCNAPHLADYFNRNCYQDDINRSNLLGHKGEVAEEFGIIMKALWTGQYRYISPKDFKITIGKINDQFAGYSQQDSQELLLFLMDGLHEDLNKADNRKRYKEENNDHLDDFKAAEHAWQKHKQLNESIIVALFQGQFKSTVQCLTCHKKSRTFEAFMYLSLPLASTSKCTLQDCLRLFSKEEKLTDNNRFYCSHCRARRDSLKKIEIWKLPPVLLVHLKRFSYDGRWKQKLQTSVDFPLENLDLSQYVIGPKNNLKKYNLFSVSNHYGGLDGGHYTAYCKNAARQRWFKFDDHEVSDISVSSVKSSAAYILFYTSLGPRVTDVAT
B1 was tested, and the binding was “binds”.
